From patent US20080119424A1 (published 2008)
These are yes or no findings as the source states them, for the method shown. In cells and extracts the contact can be indirect. Some results given as binding are weak or reduced against the parent protein; the word gives no strength.

By UniProt entry, the sequences of proteins in these tests, tags left out. Where a name states a change or a piece, a line headed by the entry shows the natural chain unless it says otherwise.
UniProt P78395: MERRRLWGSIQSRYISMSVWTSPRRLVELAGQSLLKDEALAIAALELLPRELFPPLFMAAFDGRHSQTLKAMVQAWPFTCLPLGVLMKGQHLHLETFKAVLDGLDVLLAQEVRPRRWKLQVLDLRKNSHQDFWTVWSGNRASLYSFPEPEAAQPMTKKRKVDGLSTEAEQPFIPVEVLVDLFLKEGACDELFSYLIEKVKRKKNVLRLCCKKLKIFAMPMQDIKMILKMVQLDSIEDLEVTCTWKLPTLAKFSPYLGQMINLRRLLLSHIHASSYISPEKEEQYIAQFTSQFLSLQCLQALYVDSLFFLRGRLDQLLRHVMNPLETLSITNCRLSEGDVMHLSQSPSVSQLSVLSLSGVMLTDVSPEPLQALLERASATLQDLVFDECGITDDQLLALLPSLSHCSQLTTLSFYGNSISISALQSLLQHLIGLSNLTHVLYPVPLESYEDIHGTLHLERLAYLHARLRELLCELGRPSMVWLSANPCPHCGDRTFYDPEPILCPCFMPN

Molecular target: T1, endogenous RARα (Retinoic Acid Receptor alpha) of mouse cells (mouse (endogenous in mouse embryonic fibroblasts)) (UniProt P11416)
T1 sequence (looked up): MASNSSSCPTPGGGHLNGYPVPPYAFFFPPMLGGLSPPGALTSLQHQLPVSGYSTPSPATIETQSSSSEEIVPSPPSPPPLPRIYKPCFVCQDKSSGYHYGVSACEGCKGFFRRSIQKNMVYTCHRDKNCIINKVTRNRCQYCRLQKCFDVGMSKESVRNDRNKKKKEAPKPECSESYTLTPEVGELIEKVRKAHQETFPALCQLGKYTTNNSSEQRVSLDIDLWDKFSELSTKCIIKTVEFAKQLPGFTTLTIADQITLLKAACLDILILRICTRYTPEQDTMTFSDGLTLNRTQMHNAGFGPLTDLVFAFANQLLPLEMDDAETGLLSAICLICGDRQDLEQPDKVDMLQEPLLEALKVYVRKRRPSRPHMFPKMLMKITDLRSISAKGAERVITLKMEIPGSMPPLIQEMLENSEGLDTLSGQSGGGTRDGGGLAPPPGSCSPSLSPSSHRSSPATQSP
Experiment: co-immunoprecipitation on IgG beads from Ras^V12 MEF lysates, immunoblot for RARα, before and after 1 µM RA

binding: binds
Substance: TAP-tagged PRAME (from UniProt P78395 1-509)
